In article doi:10.1101/2022.12.08.519103 (bioRxiv, 2022):
Results are given in words; binding and its absence hold for the method and conditions named. Some binding calls cover weakened binding; strength is not graded here. For part of these data: Sequences can lack the tags named with a protein.

Protein sequences, listed by entry. Tags and fused reporters are not part of them. Lines headed by an entry give the natural chain unless they say otherwise; changes in a name come on top.
UniProt P31946: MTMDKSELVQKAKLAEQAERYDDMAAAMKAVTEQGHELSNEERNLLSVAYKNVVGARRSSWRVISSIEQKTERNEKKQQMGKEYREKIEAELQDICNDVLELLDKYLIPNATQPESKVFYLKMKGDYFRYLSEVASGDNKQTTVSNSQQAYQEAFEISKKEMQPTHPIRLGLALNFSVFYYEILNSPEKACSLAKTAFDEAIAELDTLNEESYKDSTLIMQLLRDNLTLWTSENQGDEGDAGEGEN
UniProt P63104: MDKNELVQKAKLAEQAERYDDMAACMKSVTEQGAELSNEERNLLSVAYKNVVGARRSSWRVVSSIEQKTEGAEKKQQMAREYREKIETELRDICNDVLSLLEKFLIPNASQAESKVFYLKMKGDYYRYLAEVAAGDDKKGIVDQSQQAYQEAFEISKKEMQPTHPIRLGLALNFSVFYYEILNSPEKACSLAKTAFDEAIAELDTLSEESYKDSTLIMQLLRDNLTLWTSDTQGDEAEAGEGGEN
UniProt Q8WUI4: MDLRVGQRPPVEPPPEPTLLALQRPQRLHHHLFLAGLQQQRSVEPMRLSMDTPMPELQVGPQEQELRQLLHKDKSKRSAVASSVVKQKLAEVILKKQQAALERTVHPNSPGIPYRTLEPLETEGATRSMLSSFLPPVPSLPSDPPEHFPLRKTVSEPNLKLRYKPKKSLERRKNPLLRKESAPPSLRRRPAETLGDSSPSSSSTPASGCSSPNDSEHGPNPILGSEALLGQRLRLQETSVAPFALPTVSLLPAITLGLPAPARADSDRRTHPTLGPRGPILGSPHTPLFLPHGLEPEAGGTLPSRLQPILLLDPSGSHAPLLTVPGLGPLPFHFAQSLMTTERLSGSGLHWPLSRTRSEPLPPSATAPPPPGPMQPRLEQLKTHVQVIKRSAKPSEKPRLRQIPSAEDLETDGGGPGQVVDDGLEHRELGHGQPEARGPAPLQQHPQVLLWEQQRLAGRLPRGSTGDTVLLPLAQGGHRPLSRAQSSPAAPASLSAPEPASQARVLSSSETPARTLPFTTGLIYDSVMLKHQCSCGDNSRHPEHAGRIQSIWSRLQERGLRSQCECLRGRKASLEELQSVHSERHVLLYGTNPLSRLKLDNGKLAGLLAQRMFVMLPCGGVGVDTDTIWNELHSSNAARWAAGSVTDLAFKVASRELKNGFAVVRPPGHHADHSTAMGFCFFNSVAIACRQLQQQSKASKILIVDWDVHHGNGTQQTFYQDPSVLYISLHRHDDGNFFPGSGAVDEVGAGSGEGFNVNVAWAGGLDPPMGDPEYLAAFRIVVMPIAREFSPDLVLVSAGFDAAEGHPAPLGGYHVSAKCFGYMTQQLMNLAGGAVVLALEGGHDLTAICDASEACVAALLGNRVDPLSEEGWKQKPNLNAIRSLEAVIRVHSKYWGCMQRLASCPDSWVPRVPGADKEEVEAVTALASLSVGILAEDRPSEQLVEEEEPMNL
UniProt Q00537: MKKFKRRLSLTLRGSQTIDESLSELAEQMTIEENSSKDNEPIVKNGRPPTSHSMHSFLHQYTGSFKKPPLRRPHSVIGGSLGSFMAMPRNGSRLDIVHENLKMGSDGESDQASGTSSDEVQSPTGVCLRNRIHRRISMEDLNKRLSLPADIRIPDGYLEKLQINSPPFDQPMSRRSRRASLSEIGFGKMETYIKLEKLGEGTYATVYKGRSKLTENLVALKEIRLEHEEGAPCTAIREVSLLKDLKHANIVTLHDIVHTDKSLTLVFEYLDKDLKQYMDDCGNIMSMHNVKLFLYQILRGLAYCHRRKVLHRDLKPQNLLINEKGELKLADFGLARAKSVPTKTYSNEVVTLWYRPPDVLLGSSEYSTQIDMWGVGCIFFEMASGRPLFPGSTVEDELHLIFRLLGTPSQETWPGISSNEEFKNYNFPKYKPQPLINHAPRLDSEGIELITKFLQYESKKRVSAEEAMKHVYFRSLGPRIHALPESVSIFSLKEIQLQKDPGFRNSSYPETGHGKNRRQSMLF

Assays:
Test in all cases: Holdup Multiplex
[1] = molecular target: AviTag-His6-MBP-TEVsite-14-3-3β (human) (UniProt P31946)
[2] = molecular target: AviTag-His6-MBP-TEVsite-14-3-3ζ (human) (UniProt P63104)
[3] = molecular target: T1, AviTag-His6-MBP-TEVsite-14-3-3η (human) (UniProt Q04917)
T1 sequence: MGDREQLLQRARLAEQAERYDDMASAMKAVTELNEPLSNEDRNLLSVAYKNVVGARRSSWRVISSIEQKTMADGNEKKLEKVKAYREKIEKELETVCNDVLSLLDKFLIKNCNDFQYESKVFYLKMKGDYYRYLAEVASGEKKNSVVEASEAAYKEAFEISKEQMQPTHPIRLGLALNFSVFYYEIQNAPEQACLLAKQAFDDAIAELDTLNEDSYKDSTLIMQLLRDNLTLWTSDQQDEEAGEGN

[4] = molecular target: T2, AviTag-His6-MBP-TEVsite-14-3-3τ (human) (UniProt P27348)
T2 sequence: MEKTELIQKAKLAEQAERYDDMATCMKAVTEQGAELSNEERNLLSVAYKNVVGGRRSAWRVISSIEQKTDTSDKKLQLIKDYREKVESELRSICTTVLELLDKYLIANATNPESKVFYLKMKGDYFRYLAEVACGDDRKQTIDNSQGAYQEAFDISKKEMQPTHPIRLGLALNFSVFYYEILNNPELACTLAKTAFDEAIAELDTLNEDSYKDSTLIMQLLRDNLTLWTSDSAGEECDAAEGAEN

[5] = molecular target: T3, AviTag-His6-MBP-TEVsite-14-3-3γ (human, UniProt P61981 1-247)
T3 sequence (looked up): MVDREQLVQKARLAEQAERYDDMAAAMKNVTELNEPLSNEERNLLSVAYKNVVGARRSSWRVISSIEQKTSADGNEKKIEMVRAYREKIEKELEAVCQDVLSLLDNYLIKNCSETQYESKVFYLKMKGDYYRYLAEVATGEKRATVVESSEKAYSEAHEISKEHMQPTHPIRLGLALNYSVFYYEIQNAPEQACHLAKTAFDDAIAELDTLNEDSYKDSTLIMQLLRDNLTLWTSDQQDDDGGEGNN

[6] = molecular target: T4, AviTag-His6-MBP-TEVsite-14-3-3ε (human, UniProt P62258 1-255)
T4 sequence (looked up): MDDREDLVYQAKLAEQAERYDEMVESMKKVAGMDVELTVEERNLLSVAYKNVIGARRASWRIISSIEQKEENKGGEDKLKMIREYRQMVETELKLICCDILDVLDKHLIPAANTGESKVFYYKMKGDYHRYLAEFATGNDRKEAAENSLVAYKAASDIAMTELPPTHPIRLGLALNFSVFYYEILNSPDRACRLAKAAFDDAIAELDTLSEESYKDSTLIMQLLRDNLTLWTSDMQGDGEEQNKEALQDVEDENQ

Measured: binding

LSRTRSEPLP (peptide, UniProt Q8WUI4 353-362, phosphoserine at 358) [phosphopeptide centered on pSer358 from HDAC7]
binds: all assays above

LRRPHSVIGG (peptide, UniProt Q00537 70-79, phosphoserine at 75) [phosphopeptide centered on pSer75 from CDK17]
binds: all assays above
